Source: patent US20080105961A1, “Ligands of the Molecule Fit (Agt-121) and their Pharmaceutical Use” (priority 2004, published 2008)

Tests used:
[1] = target: D. melanogaster transcription factor CG4654-PB (D. melanogaster); assay: yeast two-hybrid screen of a human brain cDNA library (1 clone)
[2] = target: Polyubiquitin C (human); assay: yeast two-hybrid screen of a human brain cDNA library (3 clones)

binding [1]: binds
B1: FIT-PR (FIT proline-rich region), yeast two-hybrid bait (other, not shown: small tags and cut ends)
chain: RPFPTGTPPPLPPKTVPATPPRTGSPLTVATGNDQAATEAKIEKPPSISDLDSIFGPVLSPKSVAVNTEETWVHFSDASPEHVTPELTPREKVVTPPAASDIPADSPTPGPPGPPGSAGPPGPPGPRNVPSPLNLEEVQKKVAEQTFIKDDYLETLSSPKECGLGQRATPPPPPPPTYRTVVSSPGPGSGSGTGTASGASSPARPATPLVPCSCSTPPPPPPRPPSRPKLPPGKPGVGDVSRPFSPPIHSSSPPPIAPL
notes: Truncated fragment of FIT used as bait in a yeast two-hybrid screen of a human brain cDNA library; also called AGT-121

binding [2]: binds
B2: FIT-NP (FIT N-terminal plus proline-rich region), yeast two-hybrid bait (other, not shown: small tags and cut ends)
chain: MMEGLKKRTRKAFGIRKKEKDTDSTGSPDRDGMQPSPHELPYHSKAECAREGGKKASKKSNGAPNGFYAEIDWERYNSPELDEEGYSIRPEEPGSTKGKHFYSSSESEEEEESHKKFNIKIKPLQSKDILKNAATVDELKASIGNIALSPSPVRKSPRRSPGAIKRNLSSEEVARPRRSTPTPELTSKKPLDDTLALAPLFGPPLESAFDGHKTEVLLDQPEIWGSGQPVNPSMESPKLARPFPTGTPPPLPPKTVPATPPRTGSPLTVATGNDQAATEAKIEKPPSISDLDSIFGPVLSPKSVAVNTEETWVHFSDASPEHVTPELTPREKVVTPPAASDIPADSPTPGPPGPPGSAGPPGPPGPRNVPSPLNLEEVQKKVAEQTFIKDDYLETLSSPKECGLGQRETPPPPPPPTYRTVVSSPGPGSGSGTGTASGASSPARPATPLVPCSCSTPPPPPPRPPSRPKLPPGKPGVGDVSRPFSPPIHSSSPPPIAPL
notes: as for B1

No constants are given. Whether binding was seen depends on the method and setting. Binding calls can cover weak binding; strength is not graded here. One block for each binder: values may come before it.
